These are literature values, as cited in paper PMC12508156, “Non-canonical dihydrolipoyl transacetylase promotes chemotherapy resistance via mitochondrial tetrahydrofolate signaling” (Nature Communications, 2025).

For this data set, the system named is A549 cells. Particulars: read-out: cisplatin IC50; parental A549 cells; cited from earlier work. From the text: The RNAi library contains 328 shRNA clones, and each gene was targeted by 2 ~ 8 clones (Fig. 1a). Eleven genes, including DLAT, were selected as unexplored lead hits with cisplatin-sensitizing potential and were further evaluated in A549^cisR, H1299, and KB-3-1^cisR, and two acetyltrans ...

Consider `N.N.[Cl][Pt][Cl]` [cisplatin], for which the IC50 is 2300 nM.

By IC50 is commonly meant the concentration that inhibits the measured activity by half.
